PubChem BioAssay AID652272 | Drosophila RNAi Screening Center, 2013
The screen tested about 21,000 reagents; below is a random part of those that have a named target and a result. Over the whole deposit, 503 (2.4%) are marked active. 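Raw plate light values, not normalised; calls rest on replicate z-scores that were not deposited; hits include reporter decreases as well as increases.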 Unmarked entries are inactive. Names joined by + are all predicted targets of the reagent. Not given: the amount of reagent, the time to read-out.

Assay: 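Genome-wide knock-down search for components of Hedgehog signalling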 (primary screen)
System: Drosophila clone 8 (Cl8) cells
Reagent: long dsRNA against Drosophila genes
Measurement: 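Firefly light from a Hedgehog-responsive ptc promoter reporter and Renilla reference light, both read on a plate reader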
Direction: firefly Hh reporter signal: higher = more ptc reporter light; Renilla reference signal: higher = more Renilla control light
Active means: 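Hit when the z-score averaged over two replicates is under -2 or over +3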
Calls: active = hit: reporter lowered or raised; inactive = not a hit

predicted target | DRSC id | firefly Hh reporter signal, replicate 1 | firefly Hh reporter signal, replicate 2 | Renilla reference signal, replicate 1 | Renilla reference signal, replicate 2
CG33978 | DRSC17106 | 4.54e5 | 1.85e5 | 21096 | 3848
Cda9 (Chitin deacetylase-like 9) | DRSC06593 | 57467 | 34070 | 1449 | 2314
miple2 (midkine and pleiotrophin 2) | DRSC08723 | 1.19e5 | 37284 | 3714 | 2823
CG42674 | DRSC10066 | 6.26e5 | 1.39e5 | 6116 | 6116
CG42674 | DRSC10067 | 1.35e5 | 1.97e5 | 4592 | 5762
CG42674 | DRSC10811 | 1.28e5 | 1.69e5 | 2076 | 5059
CG31601 | DRSC03678 | 1.26e5 | 1.71e5 | 3544 | 6640
CG10026 | DRSC02010 | 1.06e5 | 69845 | 2740 | 6086
CG2278 | DRSC18226 | 98417 | 3.56e5 | 3110 | 10883
CG13075 | DRSC09958 | 1.43e5 | – | 8834 | 4028
CG4009 | DRSC15536 | 81280 | 89794 | 2789 | 2177
CG13605 | DRSC14608 | 99009 | 57137 | 3964 | 2269
CG34249 (retired record) | DRSC09431 | 2.24e5 | – | 5236 | –
CG14618 | DRSC20631 | 66582 | 1.35e5 | 2150 | 6553
Hacl (2-hydroxyacyl-CoA lyase) | DRSC06061 | 1.30e5 | 90934 | 6123 | 4198
magu | DRSC06832 | 69720 | 44544 | 2710 | 1888
vrs (versager) | DRSC15832 | 76332 | 1.22e5 | 1664 | 6264
CG5334 | DRSC19941 | 95419 | 2.81e5 | 3212 | 10800
CG3634 | DRSC11747 | 93719 | 1.04e5 | 2981 | 2594
CG7544 | DRSC07023 | 7.46e5 | 1.14e5 | 4893 | 4893
RpL31 (Ribosomal protein L31) | DRSC06716 | 36610 (active) | 23856 | 2168 | 3692
Sytbeta (Synaptotagmin beta) | DRSC10009 | 1.48e5 | – | 6569 | 4080
Sytbeta (Synaptotagmin beta) | DRSC10351 | 1.03e5 | – | 1654 | 2609
CG34268 | DRSC07874 | 1.09e5 | 2.05e5 | 3664 | 9431
CG9312 | DRSC16471 | 1.70e5 | 1.17e5 | 5829 | 4294
CG34178 + CG34177 | DRSC00351 | 1.05e5 | 46790 | 2597 | 5200
CG12301 | DRSC09875 | 90528 | 55795 | 3845 | 2743
EMC5 (ER membrane protein complex subunit 5) | DRSC02469 | 67056 | 41920 | 1650 | 4313
CG11248 | DRSC11644 | 1.02e5 | 97414 | 4688 | 4608
AIF (Apoptosis inducing factor) | DRSC00696 | 1.12e5 | 66668 | 4809 | 2726
Cpr66D (Cuticular protein 66D) | DRSC10640 | 18440 | 11623 | 3073 | 1257
Cpr66D (Cuticular protein 66D) | DRSC10646 | 18071 (active) | 25017 | 4692 | 2779
CG8677 | DRSC03107 | 1.12e5 | 80464 | 4512 | 3350
BicC (Bicaudal C) | DRSC02005 | 82194 | 50642 | 2194 | 5334
Paip2 (polyA-binding protein interacting protein 2) | DRSC14504 | 1.54e5 | 1.15e5 | 6043 | 4459
GstE10 (Glutathione S transferase E10) | DRSC06671 | 90864 | 44658 | 2803 | 3521
lncRNA:CR43337 (long non-coding RNA:CR43337) | DRSC07893 | 1.35e5 | 2.67e5 | 3288 | 11146
CG5290 | DRSC10501 | 82880 | 49261 | 3994 | 1962
CG5381 | DRSC02852 | 1.12e5 | 74908 | 2730 | 5996

2 consecutive reagents already listed, quoted:
predicted target | DRSC id | firefly Hh reporter signal, replicate 1 | firefly Hh reporter signal, replicate 2 | Renilla reference signal, replicate 1 | Renilla reference signal, replicate 2
CG8677 | DRSC03107 | 1.12e5 | 80464 | 4512 | 3350
BicC (Bicaudal C) | DRSC02005 | 82194 | 50642 | 2194 | 5334
